From patent US10781158B2, “Methods of protecting an organ using tetrahydrocurcumin and phosphatidylcholine” (Bhupinder Singh, priority 2014, dated 2020)
“Also recorded” adds a separate entry of the source. At least one structure is not confirmed: it was looked up by name or label, or the drawing left a doubt.

Assays:
[1] = test system: 5/6 nephrectomy rats; experiment: Heart weight normalized to body weight (cardiac hypertrophy) in CKD rats; type: in vivo, Sprague-Dawley rats; settings: for Effect on cardiac hypertrophy (words): normalized heart weight, treated vs non-treated CKD rats
Procedure: (§1) The experimental groups included healthy controls, CTL n=5, non-treated CKD, n=6 and CKD/THC n=6. At time of randomization to regular chow vs. THC diet, average blood urea nitrogen (BUN) was similar between the CKD groups (63.5+10.5 vs. 66+16.5 mg/dL).
After inducing chronic kidney disease, the rats were then treated with a pharmaceutical formulation comprising tetrahydrocurcumin, or with a pharmaceutical formulation that had both tetrahydrocurcumin and curcumin. The control group consisted of five rats, ([…]), the rats with CKD (rat number 4, 15, 20, 23, 25, 31), rats with chronic kidney disease treated with tetrahydrocurcumin (rat number 8, 11, 12, 14, 19, 21, 18 and 27) and rats treated with a combination of tetrahydrocurcumin and curcumin (rat number 1, 2, 16, 24, 28, 7, 17, 29 and 30). The measurements for the average BUN, blood pressure, body weight, delta BUN, Hgb, and Heart weight/body weight for the four groups are shown in FIGS. 2A-2G.

[2] = test system: 5/6 nephrectomy rats; experiment: Proteinuria, 24-hour urine collection (total protein, urine protein/creatinine) in CKD rats; type: in vivo, Sprague-Dawley rats; settings: 1% tetrahydrocurcumin diet
Text: (§2) For induction of CKD via nephron mass reduction, Sprague-Dawley rats underwent partial left nephrectomy followed by total right nephrectomy one week later. CKD rats were then randomized to 1% THC diet with polyenylphosphatidylcholine (PPC, 3 g/1000 kcal) vs. regular chow. […] Tail blood pressure measurement and 24-hour urine collection were done within a week of study termination. After 9 weeks on special diet, blood and kidneys were collected for biochemical and histologic analyses.
(§3) After 24 hours the rats were analyzed for proteinuria, Galectin-3, and C-reactive protein. Galectin-3 is a marker for cardiac fibrosis, and C-reactive protein is correlated with inflammation. Furthermore, a blood urea nitrogen test (BUN) was carried out with a creatinine and creatinine clearance blood test to evaluate the kidney functions and to look for nephrotoxicity.

[3] = test system: 5/6 nephrectomy rats; experiment: Plasma C-reactive protein (CRP, inflammation) in CKD rats; type: in vivo, Sprague-Dawley rats; settings: P=0.9
Text: as §2, §3

[4] = test system: 5/6 nephrectomy rats; experiment: Kidney fibrosis, image quantitative analysis of Trichrome stained kidney slides in CKD rats; type: in vivo, Sprague-Dawley rats; settings: CKD/THC vs non-treated CKD
Text: as §2, §1

[5] = test system: 5/6 nephrectomy rats; experiment: Tail blood pressure measurement in 5/6 nephrectomy CKD rats; type: in vivo, Sprague-Dawley rats; settings: treated CKD rats vs non-treated CKD rats
Text: as §2
Rats were induced to have chronic kidney disease via nephron mass reduction, Sprague-Dawley rats underwent partial left nephrectomy followed by total right nephrectomy one week later. CKD rats were then randomized to 1% THC diet with polyenylphosphatidylcholine (PPC, 3 g/1000 kcal) vs. regular chow. The rats were then administered a dose of Buprenex, a narcotic, that can cause kidney damage.
After inducing chronic kidney disease, the rats were then treated with a pharmaceutical formulation comprising tetrahydrocurcumin, or with a pharmaceutical formulation that had both tetrahydrocurcumin and curcumin. […]

[6] = cited from earlier work
[7] = test system: 5/6 nephrectomy rats; experiment: Blood urea nitrogen (BUN), creatinine and creatinine clearance blood tests (kidney function) in CKD rats; type: in vivo, Sprague-Dawley rats
Text: as §2, §3
The blood urea nitrogen test (BUN) is primarily used with the creatinine test to evaluate kidney function and to help diagnose kidney disease. […] Therefore the pharmaceutical formulations comprising tetrahydrocurcumin with or without curcumin can be used to treat hypertension.

SMILES: COc1cc(CCC(=O)CC(=O)CCc2ccc(O)c(OC)c2)ccc1O [THC, tetrahydrocurcumin]
- Heart weight/body weight ratios ([1]; FIG. 2 panel E): no noticeable change
- Effect on cardiac hypertrophy (words) [1]: trend for decreased cardiac hypertrophy; also recorded: positive impact
- Effect on cardiac hypertrophy (words) ([1]; listed as tetrahydrocurcumin): positive impact
- Proteinuria [2]: significant decrease in proteinuria
- Plasma C-reactive protein vs non-treated CKD [3]: not different between CKD groups
- Effect on renal fibrosis [4]: trend for decreased renal fibrosis
- Effect on hypertension / blood pressure (words) [5]: significant amelioration of hypertension; also recorded: positive impact
- Effect on hypertension / blood pressure (words) ([5]; listed as tetrahydrocurcumin): significant decrease in proteinuria and hypertension; also recorded: positive impact; also recorded: blood pressure decreased
- Hydrolysis in basic solutions [6]: hydrolyse rapidly
- Rate of CKD progression ([7]; 1% tetrahydrocurcumin diet, 5/6 nephrectomy rats): decreased the rate of CKD progression
- Blood urea nitrogen vs rats with induced kidney disease ([7]; FIG. 2 panel A and B): decrease in the blood urea nitrogen
